For two molecules, binding results are on record in publication PMC6721724, “The Intrinsically Disordered C-Terminal Domain Triggers Nucleolar Localization and Function Switch of PARN in Response to DNA Damage” (Cells, 2019).

Substitutions are numbered along the chain they refer to. These are yes or no findings as the source states them, for the method shown. For some of these results: Binding seen in cells or lysates may run through a third protein. Some binding calls cover weakened binding; strength is not graded here. For some of these results: Tags and fused reporters may be left off the sequences shown.

The target of experiment [1] is PARN-CTD (amino acid residues 541-639), recombinant (human) (UniProt O95453). Description: cross-linking; purified protein cross-linked with 0.03% glutaraldehyde, analysed by SDS-PAGE; both purified.
In experiment [2] the target is T1, Flag-tagged full length PARN (poly(A)-specific ribonuclease) (human) (UniProt O95453).
T1 sequence: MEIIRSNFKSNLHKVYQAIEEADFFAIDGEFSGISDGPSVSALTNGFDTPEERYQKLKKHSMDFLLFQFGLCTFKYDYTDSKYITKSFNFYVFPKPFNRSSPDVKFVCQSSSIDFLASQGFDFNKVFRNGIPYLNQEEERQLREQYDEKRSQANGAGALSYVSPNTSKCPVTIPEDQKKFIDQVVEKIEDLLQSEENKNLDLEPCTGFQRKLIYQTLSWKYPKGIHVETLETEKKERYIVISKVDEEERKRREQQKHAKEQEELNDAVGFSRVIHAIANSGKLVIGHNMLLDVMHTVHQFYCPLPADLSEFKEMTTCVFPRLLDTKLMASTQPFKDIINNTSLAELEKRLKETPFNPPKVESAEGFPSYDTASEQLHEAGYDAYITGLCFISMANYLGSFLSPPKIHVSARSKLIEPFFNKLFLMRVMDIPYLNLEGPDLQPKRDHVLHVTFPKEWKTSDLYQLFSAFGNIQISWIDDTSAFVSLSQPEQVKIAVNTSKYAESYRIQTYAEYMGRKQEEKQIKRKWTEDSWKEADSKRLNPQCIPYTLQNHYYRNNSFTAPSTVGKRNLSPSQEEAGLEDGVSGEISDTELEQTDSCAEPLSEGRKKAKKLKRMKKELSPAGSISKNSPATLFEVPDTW
The experiment can be described thus: co-IP; HEK-293T cells co-transfected with Flag-PARN and HA-CstF-50, exposed to 100 J/m^2 UV light for 10 min, then 2 h in fresh medium; RNase A treated lysate, anti-Flag M2-agarose, blot with anti-HA.

In a further experiment the target is T2, Flag-PARN-S557A (human) (UniProt O95453).
T2 sequence: T1 sequence with S557A
The experiment can be described thus: co-IP; HEK-293T cells co-transfected with Flag-PARN (or its fragment or mutant) and HA-CBP80 or HA-CstF-50, untreated (normal conditions; for PARN with CBP80 also UV-treated cells); lysate in IP lysis buffer (50 mM Tris-HCl pH 7.4, 150 mM NaCl, 1% NP-40), RNase A treated, anti-Flag M2-agarose overnight on ice, blot with anti-HA.

The next experiment concerns the target T3, Flag-PARN-S557D (human) (UniProt O95453).
T3 sequence: T1 sequence with S557D
Described as above.

B1: PARN-CTD (amino acid residues 541-639), recombinant (domain or fragment, UniProt O95453 541-639)
chain: PQCIPYTLQNHYYRNNSFTAPSTVGKRNLSPSQEEAGLEDGVSGEISDTELEQTDSCAEPLSEGRKKAKKLKRMKKELSPAGSISKNSPATLFEVPDTW
In the case of B1, the binding entry in experiment [1] is “no binding”.

B2: HA-tagged CstF-50 (protein, UniProt Q05048 1-431)
chain: MYRTKVGLKDRQQLYKLIISQLLYDGYISIANGLINEIKPQSVCAPSEQLLHLIKLGMENDDTAVQYAIGRSDTVAPGTGIDLEFDADVQTMSPEASEYETCYVTSHKGPCRVATYSRDGQLIATGSADASIKILDTERMLAKSAMPIEVMMNETAQQNMENHPVIRTLYDHVDEVTCLAFHPTEQILASGSRDYTLKLFDYSKPSAKRAFKYIQEAEMLRSISFHPSGDFILVGTQHPTLRLYDINTFQCFVSCNPQDQHTDAICSVNYNSSANMYVTGSKDGCIKLWDGVSNRCITTFEKAHDGAEVCSAIFSKNSKYILSSGKDSVAKLWEISTGRTLVRYTGAGLSGRQVHRTQAVFNHTEDYVLLPDERTISLCCWDSRTAERRNLLSLGHNNIVRCIVHSPTNPGFMTCSDDFRARFWYRRSTTD
With B2, the binding result is on record as “binds weakly” in experiment [2], “no binding” with Flag-PARN-S557A (human) and “no binding” with Flag-PARN-S557D (human).
